The target of test [1] is GST-Bcl-2 (human) (UniProt P10415). Briefly: SPR, GST-Bcl-2 over immobilized activator peptide. A general note: SPR reads the build-up and loss of mass on a sensor chip optically.
Test [2] has the same target. The experiment in a line: SPR, 800 nM GST-Bcl-2 over immobilized activator peptide.

Sequences of proteins named here, by UniProt entry; tags and fusion partners are left off. Residues count along the entry.
UniProt P10415, residues 1-218: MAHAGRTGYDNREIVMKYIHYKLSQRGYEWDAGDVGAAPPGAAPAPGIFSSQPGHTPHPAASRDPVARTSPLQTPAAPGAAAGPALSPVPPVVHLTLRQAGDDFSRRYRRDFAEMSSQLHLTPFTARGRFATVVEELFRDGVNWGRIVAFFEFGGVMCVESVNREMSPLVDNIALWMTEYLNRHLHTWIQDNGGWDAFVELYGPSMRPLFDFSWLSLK

No constants are given. Whether binding was seen depends on the method and setting. Some results given as binding are weak or reduced against the parent protein; the word gives no strength.

Regarding DMNLLDIFIEMEKRVILGEGKLDILKRVCAQ [Casp8p41 activator peptide], the binding result in test [1] and in test [2] was “binds” in each case.

The values above are taken from US20240374532A1.
